No constants are given. Whether binding was seen depends on the method and setting. Binding seen in cells or lysates may run through a third protein. A yes stands for co-enrichment or nearness to the bait. Other partners may have been found. For some assays here: A no says only that the protein was not detected with the bait.
Assays:
[1] = target: recombinant Angiopoietin-2 (Ang2), C-terminal His-tag (human) (UniProt O15123); experiment: condition: only after 6 hours incubation of HUVEC with Ang2; proximity labelling; as a1 but HUVEC incubated 6 hours with His-tag Ang2 (100 ng/ml); only the target purified
[2] = target: recombinant Angiopoietin-2 (Ang2), C-terminal His-tag (human) (UniProt O15123); experiment: proximity labelling; starved HUVEC incubated 5 minutes with His-tag Ang2 (100 ng/ml); crosslinking (2 mM DSP), anti-His-tag antibody, HRP-conjugated secondary antibody, hydrogen peroxide and phenol biotin, streptavidin-coated Dynabeads, LC-MS-MS; only the target purified

Chains of the proteins cited; added tags and fusions are not shown. Residues count along the entry.
UniProt O15123, residues 19-496: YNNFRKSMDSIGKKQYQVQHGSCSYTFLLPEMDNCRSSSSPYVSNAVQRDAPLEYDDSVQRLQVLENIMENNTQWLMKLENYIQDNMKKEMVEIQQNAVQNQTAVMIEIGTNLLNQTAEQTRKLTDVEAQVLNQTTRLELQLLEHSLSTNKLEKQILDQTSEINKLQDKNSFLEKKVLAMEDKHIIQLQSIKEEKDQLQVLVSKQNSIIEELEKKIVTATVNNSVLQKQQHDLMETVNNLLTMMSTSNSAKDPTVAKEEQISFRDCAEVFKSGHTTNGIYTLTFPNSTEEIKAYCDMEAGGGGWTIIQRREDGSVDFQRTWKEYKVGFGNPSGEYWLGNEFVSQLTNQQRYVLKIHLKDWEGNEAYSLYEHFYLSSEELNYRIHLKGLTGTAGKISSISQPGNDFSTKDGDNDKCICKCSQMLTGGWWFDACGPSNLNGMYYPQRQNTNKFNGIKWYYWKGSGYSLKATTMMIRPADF
UniProt P21802, residues 22-821: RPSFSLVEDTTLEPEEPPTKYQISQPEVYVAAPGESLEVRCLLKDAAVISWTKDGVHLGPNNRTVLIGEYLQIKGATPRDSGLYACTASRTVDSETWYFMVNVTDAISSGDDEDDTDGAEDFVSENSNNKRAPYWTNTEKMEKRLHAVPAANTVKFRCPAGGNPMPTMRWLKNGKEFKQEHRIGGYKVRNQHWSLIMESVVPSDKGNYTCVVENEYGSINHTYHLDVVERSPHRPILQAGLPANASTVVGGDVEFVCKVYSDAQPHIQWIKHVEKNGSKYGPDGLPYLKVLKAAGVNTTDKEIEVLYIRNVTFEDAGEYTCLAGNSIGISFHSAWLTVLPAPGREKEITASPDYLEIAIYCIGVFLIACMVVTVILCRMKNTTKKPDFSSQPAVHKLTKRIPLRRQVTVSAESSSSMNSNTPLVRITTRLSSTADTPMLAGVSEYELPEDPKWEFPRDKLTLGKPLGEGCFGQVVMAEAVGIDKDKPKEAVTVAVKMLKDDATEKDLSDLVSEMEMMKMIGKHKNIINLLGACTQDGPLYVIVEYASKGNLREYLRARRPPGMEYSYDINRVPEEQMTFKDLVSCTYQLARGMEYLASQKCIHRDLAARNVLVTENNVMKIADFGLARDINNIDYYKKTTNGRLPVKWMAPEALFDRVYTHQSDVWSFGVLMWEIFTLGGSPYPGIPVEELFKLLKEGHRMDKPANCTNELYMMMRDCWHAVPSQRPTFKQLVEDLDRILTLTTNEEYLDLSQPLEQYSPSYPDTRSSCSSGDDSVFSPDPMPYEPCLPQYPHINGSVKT

binding [1]: no binding
binding [2]: binds
Substance: FGFR2, endogenous in HUVEC (from UniProt P21802 22-821) (receptor)

Source: paper PMC12325526
